In PubChem BioAssay AID493014 (National Center for Advancing Translational Sciences (NCATS), 2011):
In all, about 340,000 compounds went through this assay and about 170 (0.05%) were called active. The inconclusive results got no clear call from the source; some entries with a clear call stand among them for comparison. Calls come from the whole dose curve; as a rule, active = well fitted inhibition curve with a large enough effect in the signal ratio, with a control signal flat (not every such curve was filed as active); inconclusive = small, poorly fitted or top-dose-only effect, or effect the other way, or a change in a side signal; inactive = flat fitted curve, though single readings scatter; the % refers to the signal ratio. Where the call is inconclusive, the potency comes from a doubtful curve fit.

Assay: qHTS Assay to Find Inhibitors of Chronic Active B-Cell Receptor Signaling;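 for activity change, negative = inhibition: plate controls were basal doxycycline-induced cells for no effect and cells given 10 µM MG132 for full effect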
Conditions: ABC-DLBCL IkBa-CBG/CBR reporter, luminescence ratio (green luciferase fused to IkBa over red control in TMD8 lymphoma cells), 4 h; activity change, negative = inhibition: at 46.1 µM (top of the series) unless noted
Outline: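 Cell line TMD8 (human ABC DLBCL), stably expressing tet-inducible CBG68-IkBa fusion and CBR; IMDM/0.5% FBS; cpd up to 46 uM; dox induction, 4 h, 37C/5% CO2; dual luminescence; green/red ratio; MG132 control.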
Potency is the fitted concentration of half-maximal effect.

SMILES	activity change, negative = inhibition	Potency
CCc1ccc(C(=O)N/N=C(\C)c2cccnc2)s1	inconclusive: -0.248%	–
O=C(NC(=S)N1CCCCCC1)c1ccccc1	inconclusive: -0.129%	–
CC1(C)C2CC=C(/C=N/NC(=S)NCCc3ccccc3)C1C2 (centres undefined)	inactive: -7.3%	–
OC[C@H]1O[C@H](OCCc2ccc(O)cc2)[C@H](O)[C@@H](O)[C@@H]1O	inactive: -1.09%	–
COc1ccc(NC(=O)c2ccc(C(=O)c3ccccc3)o2)cc1	inactive: -0.195%	–
COc1ccccc1/C=C1\SC(=S)N(CCC(=O)Nc2nnc(C)s2)C1=O	inconclusive: -24.8%	–
Cc1ccc(CNC(=O)C2CC(c3cc(C(F)(F)F)cc(C(F)(F)F)c3)=NO2)o1 (centres undefined)	inconclusive: -12.1%	–
C/C(Cn1nc([N+](=O)[O-])cc1C)=N\NC(=O)COc1ccccc1[N+](=O)[O-]	inconclusive: 10.2%	–
O=C(CSC(=S)N1CCCC1)c1cc(Br)cc(Br)c1O	–	inconclusive: 31.6 µM [cytotoxic, single point]
COc1ccccc1N1C(=O)CC(N2CCc3ccccc32)C1=O (centres undefined)	–	inconclusive: 2.31 µM [falling, partial curve]
COC(=O)COc1ccc2occ(C(C)=O)c2c1	inactive: 0.529%	–
CC(C)(C)NCC(=O)c1c[nH]c2ccccc12	–	inconclusive: 15.8 µM [falling, single point]
Cc1ccc(NC(=O)CC(C)S(=O)(=O)c2ccc3c(c2)NC(=O)CO3)c(Cl)c1 (centres undefined)	inconclusive: 3.98%	–
CCn1c(=N)n(CC(=O)c2ccc(Br)s2)c2ccccc21	–	inconclusive: 1.12 µM [rising, partial curve, poor fit]
Cc1[nH]n(-c2ccccc2)c(=O)c1C(=O)c1ccccc1	inconclusive: -20.2%	–
Cc1ccc(-c2csc(Nc3ccc(C(=O)O)cc3)[n+]2Cc2ccccc2)cc1	–	inconclusive: 22.4 µM [falling, partial curve]
CCOC(=O)c1c(CN(CC)CC)oc2cc(Br)c(O)cc12	–	inconclusive: 14.6 µM [rising, partial curve, poor fit]
Cc1ccc(C)c(-c2csc(NC(=O)c3cnccn3)n2)c1	inconclusive: 12.3%	–
Cc1nc(SCC(=O)c2cccc([N+](=O)[O-])c2)n[nH]1	–	inconclusive: 29.1 µM [falling, single point]
Cc1cc(C)n(C(=O)CCC2COc3ccccc3O2)n1 (centres undefined)	inconclusive: 29.6%	–
COc1ccc2nc(SC(C(=O)c3ccccc3)c3ccccc3)nc(C)c2c1 (centres undefined)	inactive: -0.255%	–
Cc1csc(Nc2ccccc2)[n+]1C	inconclusive: 0.739%	–
CCc1c(C(=O)NNC(=S)NC2CCCCC2)csc1C	–	inconclusive: 7.94 µM [falling, partial curve, poor fit]
CCCCC(CC)COC(=O)CCCCC(=O)OCC(CC)CCCC (centres undefined)	inactive: -14.3%	–
COc1cc(C(=O)N=c2sc3ccccc3n2C)cc(OC)c1OC	inconclusive: 6.33%	–
NC(=O)NC(=O)CSc1nc(C2CCCCC2)n(-c2ccccc2)n1	inactive: -0.692%	–
O=C(N/N=C1\CCc2ccccc21)c1ccccc1O	–	inconclusive: 0.259 µM [rising, full curve, poor fit]

Rewritten bar-delimited: part of the list above.
SMILES | activity change, negative = inhibition | Potency
CCOC(=O)c1c(CN(CC)CC)oc2cc(Br)c(O)cc12 | – | inconclusive: 14.6 µM [rising, partial curve, poor fit]
Cc1ccc(C)c(-c2csc(NC(=O)c3cnccn3)n2)c1 | inconclusive: 12.3% | –
Cc1nc(SCC(=O)c2cccc([N+](=O)[O-])c2)n[nH]1 | – | inconclusive: 29.1 µM [falling, single point]

The listing continues.

SMILES	activity change, negative = inhibition	Potency
CCCCCCC(=O)Nc1nc(C)c(-c2csc(Nc3cccc(OC)c3)n2)s1	inconclusive: -15%	–
N/C(CSc1ccc(Cl)cc1)=N\S(=O)(=O)c1ccc(Cl)cc1	inconclusive: -2.97%	–
CCOc1ccccc1COC(=O)c1cccc(-n2cnnn2)c1	inconclusive: -26.1%	–
O=C(COC(=O)c1ccc2ccccc2c1)Nc1ncc(C(F)(F)F)cc1Cl	inconclusive: 4.89%	–
COc1ccc(/C=N/Nc2nc(-c3cccnc3)nc3ccccc23)cc1OC	inconclusive: 0.426%	–
COC(=O)CCCCCCCC(=O)Nc1nnc(C(F)(F)F)s1	inconclusive: -29.9%	–
O=C(NNC(=O)c1cccnc1SCc1cccc([N+](=O)[O-])c1)c1ccc(F)cc1	inactive: -20.3%	–
Cc1onc(-c2ccccc2)c1-c1csc(COc2ccccc2)n1	inconclusive: 14.4%	–
CCOc1ccc(CSC(=N)N)cc1	inactive: -9.41%	–
CC(=O)Nc1sc(N/N=C\c2ccccc2F)nc1-c1cccs1	–	inconclusive: 29.1 µM [falling, single point]
O=S(=O)(c1ccc(Br)c2ccccc12)N1CCCC1	inactive: -8.67%	–
CCN(CC(=O)Nc1ccc(NC(C)=O)cc1)C(=O)CSCC(=O)Nc1ccc(C)cc1	inconclusive: 2.99%	–
CCSc1cc(C)nc2c(-c3ccccc3)c(C)nn12	–	inconclusive: 3.66 µM [rising, full curve, poor fit]
COc1ccc(CCCC(=O)NCCc2ccccc2)c(C)c1	inconclusive: 1.91%	–
COc1ccccc1CNC(=O)c1cc(S(=O)(=O)N2CCCCC2)c[nH]1	inactive: -7.17%	–
C/C(=N\Nc1c(F)c(F)c(Br)c(F)c1F)c1ccncc1	inconclusive: 0.395%	–
O=C(Nc1cccc(CNCCc2c[nH]c3ccccc23)c1)c1ccccc1Cl	–	inconclusive: 35.5 µM [falling, partial curve, poor fit]
Clc1ccc(CN2C3=NCCCN3c3ccccc32)cc1Cl	inconclusive: -19.5%	–
CCn1ccnc1CN(C)Cc1cn(-c2ccc(C)cc2)nc1-c1cccc(C)c1	inconclusive: -9.23%	–
O=C(Cc1c(Sc2ccccc2)c2ccccc2n1Cc1ccccc1)NCCO	inconclusive: -8.48%	–
N#Cc1ccsc1NC(=O)CSc1ncnc2ccccc12	–	inconclusive: 18.4 µM [falling, partial curve]
CN1CCN(C(=O)c2cnn3c(C(F)(F)F)cc(-c4cccs4)nc23)CC1	inconclusive: -12.3%	–
CN1/C(=C\C=Nc2ccc3ccccc3c2)C(C)(C)c2ccccc21	inconclusive: -24.6%	–
Nc1ccc(NC(=O)Nc2ccc(N)cc2)cc1	–	inconclusive: 35.5 µM [falling, single point]
C=CCn1c(SCC(=O)N(C)C)nc2cc(C(=O)O)ccc2c1=O	inconclusive: -4.02%	–
COc1cc2c(cc1OC)CN(Cc1ccc(C)cc1)CC2	inactive: 0.223%	–
CCOc1ccccc1NC(=S)N(CCOC)C1CCN(C(C)=O)CC1	inactive: -5.18%	–
